Protein sequences, listed by entry. Tags and fused reporters are not part of them. Lines headed by an entry give the natural chain unless they say otherwise; changes in a name come on top.
UniProt Q9Y4U1: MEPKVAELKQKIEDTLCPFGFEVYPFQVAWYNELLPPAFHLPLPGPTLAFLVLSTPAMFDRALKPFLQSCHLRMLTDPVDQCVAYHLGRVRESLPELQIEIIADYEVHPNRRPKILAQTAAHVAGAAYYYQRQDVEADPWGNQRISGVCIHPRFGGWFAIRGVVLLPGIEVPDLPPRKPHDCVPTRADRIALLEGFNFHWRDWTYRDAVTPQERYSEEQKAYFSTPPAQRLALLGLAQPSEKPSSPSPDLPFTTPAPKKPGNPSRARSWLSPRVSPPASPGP

According to article PMC4705923, “Structural Insights into the MMACHC-MMADHC Protein Complex Involved in Vitamin B12 Trafficking*” (The Journal of Biological Chemistry, 2015):

Columns and labels:
HsMMACHC ΔPNR (human) = HsMMACHC ΔPNR (human) (UniProt Q9Y4U1); assay: native gel or EMSA; blue native-PAGE; 25 μM of each protein with 50 μM MeCbl and 8 mM GSH, preincubated in the dark at room temperature for 1 h; complex judged by an additional band; both purified
HsMMACHC R161Q (human) = HsMMACHC R161Q (human) (UniProt Q9Y4U1); assay: as above

binding (HsMMACHC ΔPNR (human)): no binding (tested: 25 μM) | binding (HsMMACHC R161Q (human)): binds
B1: HsMMADHCΔ123 (domain or fragment, human, UniProt Q9H3L0 124-296, looked up)
chain: QGNDAPVEQEINSAETYFESARVECAIQTCPELLRKDFESLFPEVANGKLMILTVTQKTKNDMTVWSEEVEIEREVLLEKFINGAKEICYALRAEGYWADFIDPSSGLAFFGPYTNNTLFETDERYRHLGFSVDDLGCCKVIRHSLWGTHVVVGSIFTNATPDSHIMKKLSGN
notes: human MMADHC (296 aa) with N-terminal truncation Δ123; source: E. coli BL21(DE3)R3, purified (Ni-Sepharose, Superdex 200)

These are yes or no findings as the source states them, for the method shown. For some assays here: Binding calls can cover weak binding; strength is not graded here.
